No constants are given. Whether binding was seen depends on the method and setting. Binding seen in cells or lysates may run through a third protein. Some results given as binding are weak or reduced against the parent protein; the word gives no strength. Each block holds one substance with its values, some of them ahead of it.
What was measured:
Myc-PON2 = Myc-PON2 (UniProt Q15165); assay: co-IP; HEK293 cells transfected with Myc-PON2; lysate with Myc antibody overnight and TrueBlot IgG beads; Western blot with DJ-1 antibody for endogenous DJ-1
GST-DJ-1 = GST-DJ-1 (UniProt Q99497); assay: pull-down; HEK293 cells expressing GST-DJ-1 or GST; cleared lysate (50 mM Tris HCl pH 7.5, 100 mM NaCl, 1 mM EDTA, 1 mM DTT, 0.2% NP-40) with glutathione sepharose 2-4 hours; Western blot with PON2 antibody
[1] = molecular target: T1, DJ-1 (endogenous, murine cortical neurons) (mouse (endogenous in cortical neurons)) (UniProt Q99LX0); assay: co-IP; endogenous proteins in lysate of cultured murine cortical neurons; DJ-1 antibody overnight and TrueBlot IgG beads; Western blot with PON2 antibody
T1 sequence: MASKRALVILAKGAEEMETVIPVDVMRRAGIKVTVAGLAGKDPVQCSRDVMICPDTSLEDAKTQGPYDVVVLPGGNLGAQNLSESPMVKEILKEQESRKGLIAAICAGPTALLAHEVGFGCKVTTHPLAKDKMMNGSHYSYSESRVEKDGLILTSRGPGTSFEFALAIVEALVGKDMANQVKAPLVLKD

By UniProt entry, the sequences of proteins in these tests, tags left out.
UniProt Q15165: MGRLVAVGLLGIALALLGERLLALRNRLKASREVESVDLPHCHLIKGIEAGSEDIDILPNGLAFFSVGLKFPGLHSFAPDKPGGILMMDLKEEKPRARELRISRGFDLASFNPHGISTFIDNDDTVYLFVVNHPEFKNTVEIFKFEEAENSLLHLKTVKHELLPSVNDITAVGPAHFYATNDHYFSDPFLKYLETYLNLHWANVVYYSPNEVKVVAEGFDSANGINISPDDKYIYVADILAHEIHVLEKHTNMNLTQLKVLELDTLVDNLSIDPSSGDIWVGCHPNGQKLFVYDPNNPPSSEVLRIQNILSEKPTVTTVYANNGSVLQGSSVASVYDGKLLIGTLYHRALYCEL
UniProt Q62086: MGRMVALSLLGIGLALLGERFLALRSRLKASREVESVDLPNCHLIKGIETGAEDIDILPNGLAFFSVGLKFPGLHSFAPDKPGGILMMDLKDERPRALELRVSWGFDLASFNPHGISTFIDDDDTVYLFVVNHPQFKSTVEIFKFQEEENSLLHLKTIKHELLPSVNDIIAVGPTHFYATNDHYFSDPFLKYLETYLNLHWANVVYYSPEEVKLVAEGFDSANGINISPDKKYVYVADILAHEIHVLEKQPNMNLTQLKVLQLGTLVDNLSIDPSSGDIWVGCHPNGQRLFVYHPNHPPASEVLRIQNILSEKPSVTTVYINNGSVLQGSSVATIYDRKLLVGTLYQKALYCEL

binding (Myc-PON2): binds
Substance: DJ-1 (endogenous, HEK293) (from UniProt Q99497 1-189)

binding (GST-DJ-1): binds
Substance: Paraoxonase-2 (endogenous, HEK293) (from UniProt Q15165 1-354) (enzyme)

binding [1]: binds
Substance: Paraoxonase-2 (endogenous, murine cortical neurons) (from UniProt Q62086 1-354) (enzyme)

From publication PMC4161380
